# Source: PubChem BioAssay AID1347423 (Functional Genomics Laboratory (NCATS/FGL), 2020)
# Screen size: about 52,000 sequences; about 210 (0.4%) were called active.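 The calls were made as follows: active = gene whose silencing raises cell survival under the drug, median off-target-corrected z-score across its silencing RNAs 2 or more; inactive = the rest.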 The list shows a part of the results.
# Assay: Resistance to Poly (ADP-Ribose) Polymerase inhibitor: Gene Identification via Genome-wide siRNA Screen
# Settings: mouse BRCA2 R2336H ES cells, olaparib, CellTiter-Glo viability; active compounds read high
# In short: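 Genome-wide siRNA screen (3 siRNAs/gene, 20 nM) in mouse ES cells carrying hypomorphic BRCA2 R2336H; olaparib 500 nM added 48 h post-transfection, CellTiter-Glo viability 72 h later. Normalized to plate-median negative control; MAD z-scores, gene median, seed-adjusted.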
row,Sequence,z-score
1,GCGACAUAAACAUUGUGGUTT against Adamts18,inactive: 0.545
2,GGAGAAGGUUCGAAGAAGCTT against BC003322,inactive: -0.27
3,GGCAGUUAGAUGUCAGUGCTT against Edn1,inactive: -0.26
4,CCAUCUCGCUACCAUGCAATT against F830020C16Rik,inactive: 0.584
5,CCCAACUAUACUGUCUACUTT against Slc22a6,inactive: -1.44
6,GCCUACUUGGAUGUUAAUGTT against Pappa,inactive: -0.378
7,CCCUGUAACCAAUAAGAAGTT against Snrpa1,inactive: 0.474
8,CGGAUGCCGCUGAUAAGAUTT against Pofut2,inactive: 0.237
9,GGCAGUCAGGAAAUGCUUGTT against 2510027J23Rik,inactive: 1.78
10,GGGUUGGAGAUAGGUUUUUTT against Rundc1,inactive: -0.36
11,GUGGUGGGAUACACCAACUTT against Pgbpll,inactive: 0.858
12,GGGUUGAAAGAGCUUGCCATT against V1ri3,inactive: -0.649
13,CGAUGAUUCCAAGUUUGGCTT against Pinx1,inactive: -0.772
14,GCUACUUAAGGGUUUGGAUTT against Pcdhb3,inactive: 2.89
15,GGAACAGAGGAGGUAAAGCTT against Gtpbp2,inactive: 0.926
16,GGAGCUUGAAAUGCUUGGUTT against Dscr2,inactive: -2.13
17,GCAGAUCACUGGAGUAAACTT against Spz1,inactive: -1.51
18,GGCCUUUUAUCAACGCAGUTT against Npc1l1,inactive: 0.539
19,GGGUUAGAUUUAGUCAAUGTT against Gsg2,inactive: -0.0664
20,UUUGCCGGGUUCCCAAAAGTT against C77604,inactive: 0.0427
21,GCAUCUCGCCACAUCUUGATT against Prm1,inactive: 0.588
22,GCAGUUGUCACUGGCAAGUTT against Aqp2,inactive: -2.89
23,GCUUGGAGGAUACAUUCACTT against Gjb2,inactive: 0.505
24,CGUUUUUCUCUAACUUACATT against AI194318,inactive: 0.632
25,GGUUUCAGAUGAGAAUGUATT against Mybpc3,inactive: -1.14
26,GCAGCACGUUGAAAUGAGUTT against Dpp4,inactive: -0.414

# A different layout for part of the listing above:
row | Sequence | z-score
5 | CCCAACUAUACUGUCUACUTT against Slc22a6 | inactive: -1.44
23 | GCUUGGAGGAUACAUUCACTT against Gjb2 | inactive: 0.505

# Next records follow.

row,Sequence,z-score
1,GGAAGUGGAAAUGAGGACATT against 2700008N14Rik,inactive: -1.32
2,GCUACCUGUGCAAGUGAACTT against 2700094K13Rik,inactive: -0.639
3,GGUCAUAAGAAGCUCAAGATT against Serpinb9d,inactive: -0.0731
4,GGUGGUUGUUGAAUAUAAUTT against Habp4,inactive: 0.752
5,CCUUUGUACAAUGUAUAGATT against BC008163,inactive: 1.09
6,CCGAAGGUGUUCAAAAUUCTT against Mbl2,inactive: 0.528
7,GGCCUUCCUUGACCAAUCUTT against Ren1,inactive: 0.878
8,GGAUAUGGUUGGUCAAAAUTT against Cdh7,inactive: 1.38
9,GGAACAGACACAGACACAGTT against Phxr5,inactive: -0.182
10,GGCACACCACUACACCAUCTT against Syk,inactive: -0.907
11,CCUCUUCGCAUCAACACUGTT against Car10,inactive: -0.758
12,CCAAUAAGGCAUAUGUUUUTT against Scarb2,inactive: -0.36
13,GCUCAAAACUCAAACUAGUTT against AI894139,inactive: 0.383
14,GCCUGUUGGGUGUUCUUCCTT against Olfr834,inactive: 0.333
15,CCAAGGUUCCAAAACUGAUTT against Pglyrp4,inactive: -0.643
16,GGGACAACAUGGAUUCAAGTT against Sult1c2,inactive: 2.64
17,CCUAGUCAAGGAUAGGUAUTT against LOC446210,inactive: 0.496
18,GGAACUUACAUGAAUUCCATT against Slco1a4,inactive: 0.847
19,GGAGAGAUGUUUAUGAAUATT against Slc6a14,inactive: 0.355
20,GGGAGAUUGCAUUUGGAGCTT against Olfr678,inactive: -0.588
21,CCUCACAAUAUCUUUAGAATT against 4922501C03Rik,inactive: -0.0289
22,GCAUUUUUCGUUAGGAAAATT against 2410004I17Rik,inactive: -1.6
23,GGAGAUGGUGGAAUUCUCUTT against Atp5a1,inactive: -0.677
24,GCAAUGACAGAACAUACAGTT against Cts7,inactive: 0.321
25,GGAAGUUCGUUAUUAGGAUTT against Disp2,inactive: 0.282
26,GGAAGCUACCUGGAAGACATT against 2310005N01Rik,inactive: -1.26

row,Sequence,z-score
1,GGAGCAGCUUCUGCUUUCUTT against Senp1,inactive: 1.44
2,CCAGAAGAGUACUGUUUUATT against Tpm4,inactive: -0.0232
3,GGACUUAGGAGCCAAAAUUTT against Afg3l1,inactive: -2.93
4,GGGAGGAAGUGGAAGUUCUTT against Tgfb1i4,inactive: -1.19
5,GCAUCAUGAGUCCCAUUCUTT against Olfr385,inactive: -1.95
6,GCAAAGGUUUAAGUUAUGATT against BC016226,inactive: -0.296
7,GGUACCUUGCUUUUAUUUUTT against Rdh13,inactive: 0.337
8,GGAAAUUGUUAAGCAGUGUTT against Zc3hav1,inactive: -0.47
9,GGAGUUAAAUUUAGAGAACTT against Shoc2,inactive: -0.0891
10,CCCACGCUUAGCAAUAUCATT against Asna1,inactive: -0.53
11,GGCAUACUCAUGGAAUAACTT against Selp,inactive: 0.427
12,GGGAGAGUUCCAUAAAUUGTT against 4430402O11Rik,inactive: 0.38
13,GGUAGAAGAGAGUAUCAACTT against Commd1,inactive: 0.975
14,GGCUAUGCUGCCUACUACUTT against Bmp7,inactive: -2.73
15,GGUUGGAAAUGACUAAUAATT against Slco6c1,inactive: -0.439
16,GGACAUCUUAAGAUCUUUGTT against 4930578C19Rik,inactive: -0.46
17,CGGAACCAUAGGGAAUCAGTT against 2310061C15Rik,inactive: -0.447
18,GGUUACAAUCUGAAGUGACTT against 4931429L15Rik,inactive: -1.39
19,GGCACUUUCCCUAUAUUGUTT against Emid2,inactive: -0.115
20,GCAAGUUGAGAACAUCAAGTT against Diap1,inactive: 0.384
21,GGACUGGUAUUCAAAGAGGTT against Krt1-9,inactive: 0.221
22,GGAACAGGAAGAAUUCCUATT against 2310036D22Rik,inactive: 0.172
23,GGAUGAAGAACUGACUCCGTT against Oact2,inactive: 0.539
24,GCUGCUGGCAACAAAUAUGTT against Tubb2,inactive: -1.2
25,GGCUUUAGGAAGAUCCUUGTT against Ilf2,inactive: 1.81
26,CCAAUAAAAGUGCACACCUTT against Actb,inactive: 1.6

row,Sequence,z-score
1,GGCUGCUUAUAAAAUUUUCTT against Mipep,inactive: -0.599
2,GGAGAUCCUAGUGAAUGUGTT against Kcng4,inactive: -2.4
3,GGUGAUGUCUCGGUACCCATT against Mvk,inactive: -0.664
4,GGCAGCUUAGCUGUUCGUCTT against Socs4,inactive: 0.356
5,GCAACCUCCUUCAAACUUGTT against Ebf2,inactive: 0.827
6,GCCAAUCAAAGACAAGCUUTT against Vkorc1l1,inactive: -0.965
7,GGACAAAGUGGCCUUUAUCTT against Decr2,inactive: -1.68
8,CCGUUACCUUCUUAGAAAATT against Rnf150,inactive: -0.775
9,GGGUUAGGCCAGUUCUGAUTT against Ingaprp,inactive: 0.705
10,GGUAGCAUUAUGGGUGAGGTT against 1500004A08Rik,inactive: -1.64
11,GGUACAUUAACUGACUUGGTT against Scospondin,inactive: -0.0203
12,CCCAACUGACAUCUUCCUATT against Gzmb,inactive: 0.262
13,GCCCAAACAUGCAUAUGGCTT against 2010003K11Rik,inactive: 1.41
14,GGCUUCAGAUUUCGAUAUGTT against Nfkb2,inactive: -0.687
15,GGCCAAGAUCACCAUCGUGTT against Cldn3,inactive: 0.108
16,GGCACCUUUGCCUUGACAUTT against Slc26a7,inactive: -1.03
17,ACCAGAACCAGACGCGUAATT against Cox6b2,inactive: 0.372
18,GGACUAUUUCUUCAAUCCCTT against 2310038K02Rik,inactive: 1.03
19,GCACAUGUGACUAGAUUUATT against Cetn2,inactive: 1.12
20,GGCGAGCUGGACAGAUUUGTT against Nudt6,inactive: -0.315
21,GGCCUUCCUGCUCAAGUUUTT against AU040576,inactive: 0.588
22,GCAAGUACGCUGCUCUGUCTT against Eif4b,inactive: 1.64
23,GGAACAAAGAGAAGUGCAGTT against Ecm1,inactive: 0.0067
24,CGGUAACUAUGCAAAUUCATT against Ckap4,inactive: -0.0349
25,GGAUAUCACUGAAGAGAGCTT against 4733401H18Rik,inactive: -0.192
26,CCUCGUAUUAUCAUGUGAATT against Gmppb,inactive: -0.288

# A different layout for some results above:
row | Sequence | z-score
6 | GCCAAUCAAAGACAAGCUUTT against Vkorc1l1 | inactive: -0.965
8 | CCGUUACCUUCUUAGAAAATT against Rnf150 | inactive: -0.775
10 | GGUAGCAUUAUGGGUGAGGTT against 1500004A08Rik | inactive: -1.64
19 | GCACAUGUGACUAGAUUUATT against Cetn2 | inactive: 1.12
